This test deals with T1, human kappa opioid receptor (CHOhKOP) (Homo sapiens, UniProt P41145).
T1 construct: host or cells: CHO cells (CHOhKOP)
The test is described as follows: Calcium mobilization assay, CHOhKOP cells. Type of test: cell-based.

Protein sequences, listed by entry. Tags and fused reporters are not part of them. Lines headed by an entry give the natural chain unless they say otherwise; changes in a name come on top.
UniProt P41145: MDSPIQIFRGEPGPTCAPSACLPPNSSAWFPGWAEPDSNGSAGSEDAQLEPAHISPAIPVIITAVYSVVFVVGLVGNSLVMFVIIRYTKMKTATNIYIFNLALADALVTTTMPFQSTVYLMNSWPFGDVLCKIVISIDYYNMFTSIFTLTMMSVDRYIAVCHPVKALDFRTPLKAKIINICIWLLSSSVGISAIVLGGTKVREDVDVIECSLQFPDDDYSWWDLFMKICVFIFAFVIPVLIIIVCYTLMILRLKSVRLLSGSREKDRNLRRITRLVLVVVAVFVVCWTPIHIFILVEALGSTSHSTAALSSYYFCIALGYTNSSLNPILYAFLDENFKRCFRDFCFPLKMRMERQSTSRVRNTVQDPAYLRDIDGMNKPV

Usually Emax stands for the maximal effect, on the per cent scale that the assay sets.

Turning to `C[C@@H](NC(=O)[C@@H](N)Cc1ccc(O)cc1)C(=O)NCC(=O)N[C@@H](Cc1ccccc1)C(N)=O` [HAGD, H-Tyr-D-AIa-GIy-Phe-NH2], the Emax came out at 2.95 ± 0.92%.

Values taken from publication PMC9824695, “A Novel Multi-Target Mu/Delta Opioid Receptor Agonist, HAGD, Produced Potent Peripheral Antinociception with Limited Side Effects in Mice and Minimal Impact on Human Sperm Motility In Vitro” (Molecules, 2023).
